PubChem BioAssay AID652243, Drosophila RNAi Screening Center, 2013
Screen: 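Fly genes required for human androgen receptor driven transcription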 (primary screen). System: Drosophila S2R+ cells. Knock-down reagent: long dsRNA against Drosophila genes. Timing: 72 h (48 h, then 24 h hormone). Conditions: synthetic androgen R1881 at 10 nM for 24 h. Detection: 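Per-well raw luminescence of the androgen-driven firefly reporter and of the Renilla control, two replicates each, without normalisation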. Direction: firefly reporter light: higher = more light from androgen-responsive reporter; Renilla control light: higher = more constitutive control signal (cell number, transfection). Hit rule: 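Across duplicate plates, a knock-down whose log firefly/Renilla ratio shifted a set fold down or up from the GFP/LacZ control mean was a hit; the downward cut appears as both 1.5 and 3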. Meaning of the calls: active = hit: reporter lowered or raised; inactive = no hit.
The deposit covers about 24,000 reagents; shown is an unselected part of those with a known target gene and a result. Of all reagents, 246 (1%) were called active. 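Plates not normalised; calls are printed but the firefly/Renilla ratio behind them is not deposited; fold cut for lowering reported inconsistently.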 Raw values are not corrected between plates. The numbers tell different reagents against one gene apart. Not given: the amount of reagent.

Silencing of CG2258 #1 gave: firefly reporter light, replicate 1 = 66420; firefly reporter light, replicate 2 = 76294; Renilla control light, replicate 1 = 5.56e5; Renilla control light, replicate 2 = 3.82e5; inactive.
For CG2258 #2 the deposit lists firefly reporter light, replicate 1 = 2.46e5; firefly reporter light, replicate 2 = 3.13e5; Renilla control light, replicate 1 = 1.39e6; Renilla control light, replicate 2 = 1.21e6; inactive.
Against fzr2, the entry reads firefly reporter light, replicate 1 = 1.17e6; firefly reporter light, replicate 2 = 4.52e5; Renilla control light, replicate 1 = 2.16e6; Renilla control light, replicate 2 = 8.73e5; inactive.
Kr-h2 gave firefly reporter light, replicate 1 = 2.28e5; firefly reporter light, replicate 2 = 2.51e5; Renilla control light, replicate 1 = 2.16e6; Renilla control light, replicate 2 = 1.67e6; inactive.
cal1 gave firefly reporter light, replicate 1 = 1.12e5; firefly reporter light, replicate 2 = 85000; Renilla control light, replicate 1 = 6.97e5; Renilla control light, replicate 2 = 6.32e5; inactive.
Against CG15422 #1, the values are firefly reporter light, replicate 1 = 63278; firefly reporter light, replicate 2 = 57689; Renilla control light, replicate 1 = 8.89e5; Renilla control light, replicate 2 = 7.29e5; inactive.
CG15422 #2 gave firefly reporter light, replicate 1 = 6.90e5; firefly reporter light, replicate 2 = 4.80e5; Renilla control light, replicate 1 = 6.46e5; Renilla control light, replicate 2 = 5.47e5; inactive.
For ATPCL #1 the deposit lists firefly reporter light, replicate 1 = 55394; firefly reporter light, replicate 2 = 1.26e5; Renilla control light, replicate 1 = 1.56e6; Renilla control light, replicate 2 = 1.56e6; inactive.
Against ATPCL #2 the deposit lists firefly reporter light, replicate 1 = 2.39e5; firefly reporter light, replicate 2 = 2.78e5; Renilla control light, replicate 1 = 2.94e5; Renilla control light, replicate 2 = 7.47e5; inactive.
Against Tmf #1, the values are firefly reporter light, replicate 1 = 3.59e5; firefly reporter light, replicate 2 = 3.92e5; Renilla control light, replicate 1 = 1.78e6; Renilla control light, replicate 2 = 1.39e6; inactive.
Depletion of Tmf #2 gave: firefly reporter light, replicate 1 = 3.57e5; firefly reporter light, replicate 2 = 3.56e5; Renilla control light, replicate 1 = 1.48e6; Renilla control light, replicate 2 = 1.38e6; inactive.
Against CR18275 #1, the values are firefly reporter light, replicate 1 = 3.19e5; firefly reporter light, replicate 2 = 3.06e5; Renilla control light, replicate 1 = 4.14e6; Renilla control light, replicate 2 = 3.36e6; inactive.
Silencing of CR18275 #2 came out at: firefly reporter light, replicate 1 = 4.16e5; firefly reporter light, replicate 2 = 4.21e5; Renilla control light, replicate 1 = 1.67e6; Renilla control light, replicate 2 = 1.84e6; inactive.
yin #1 showed firefly reporter light, replicate 1 = 1.02e5; firefly reporter light, replicate 2 = 1.26e5; Renilla control light, replicate 1 = 1.27e6; Renilla control light, replicate 2 = 9.90e5; inactive.
With knock-down of yin #2 the results were firefly reporter light, replicate 1 = 9.68e5; firefly reporter light, replicate 2 = 8.87e5; Renilla control light, replicate 1 = 1.55e6; Renilla control light, replicate 2 = 1.08e6; inactive.
Against yin #3 the deposit lists firefly reporter light, replicate 1 = 1.10e6; firefly reporter light, replicate 2 = 7.21e5; Renilla control light, replicate 1 = 2.39e6; Renilla control light, replicate 2 = 2.73e6; inactive.
PpD5 #1 showed firefly reporter light, replicate 1 = 2.78e5; firefly reporter light, replicate 2 = 3.78e5; Renilla control light, replicate 1 = 1.63e6; Renilla control light, replicate 2 = 1.50e6; inactive.
Against PpD5 #2, the values are firefly reporter light, replicate 1 = 7.23e5; firefly reporter light, replicate 2 = 7.41e5; Renilla control light, replicate 1 = 1.85e6; Renilla control light, replicate 2 = 1.69e6; inactive.
bug showed firefly reporter light, replicate 1 = 1.66e6; firefly reporter light, replicate 2 = 9.15e5; Renilla control light, replicate 1 = 2.48e6; Renilla control light, replicate 2 = 1.12e6; inactive.
For gskt #1, the entry reads firefly reporter light, replicate 1 = 1.04e6; firefly reporter light, replicate 2 = 1.09e6; Renilla control light, replicate 1 = 2.07e6; Renilla control light, replicate 2 = 1.33e6; inactive.
With knock-down of gskt #2, the record shows firefly reporter light, replicate 1 = 2.66e5; firefly reporter light, replicate 2 = 2.99e5; Renilla control light, replicate 1 = 8.53e5; Renilla control light, replicate 2 = 8.16e5; inactive.
After knock-down of CG16782, the screen gave firefly reporter light, replicate 1 = 2.00e5; firefly reporter light, replicate 2 = 1.80e5; Renilla control light, replicate 1 = 3.17e6; Renilla control light, replicate 2 = 2.84e6; inactive.
CG31454 #1 scored firefly reporter light, replicate 1 = 62007; firefly reporter light, replicate 2 = 72940; Renilla control light, replicate 1 = 1.21e6; Renilla control light, replicate 2 = 1.24e6; inactive.
Against CG31454 #2 the deposit lists firefly reporter light, replicate 1 = 5.16e5; firefly reporter light, replicate 2 = 1.14e6; Renilla control light, replicate 1 = 1.10e6; Renilla control light, replicate 2 = 1.85e6; inactive.
CG31454 #3 scored firefly reporter light, replicate 1 = 4.51e5; firefly reporter light, replicate 2 = 5.04e5; Renilla control light, replicate 1 = 6.50e5; Renilla control light, replicate 2 = 6.35e5; inactive.
With knock-down of ssh #1, the screen gave firefly reporter light, replicate 1 = 1.15e5; firefly reporter light, replicate 2 = 1.68e5; Renilla control light, replicate 1 = 2.24e6; Renilla control light, replicate 2 = 1.81e6; inactive.
Against ssh #2, the entry reads firefly reporter light, replicate 1 = 4.38e5; firefly reporter light, replicate 2 = 3.72e5; Renilla control light, replicate 1 = 9.08e5; Renilla control light, replicate 2 = 7.58e5; inactive.
ssh #3 gave inactive.
Against ssh #4, the values are inactive.

5 entries from above, limited to “firefly reporter light, replicate 1”:
CR18275 #2: 4.16e5
yin #1: 1.02e5
yin #2: 9.68e5
yin #3: 1.10e6
PpD5 #1: 2.78e5
